What all share (experiment): protein microarray (ProtoArray v5.0), streptavidin-Alexa Fluor 647
Holding throughout (conditions): 3'-biotin; 20 mM Tris (pH 7.5), 5 mM MgCl2, 100 mM KCl, 0.1% Tween-20, A/T-rich and random oligonucleotide blockers; temperature not stated; high values mean tight binding

Protein sequences, listed by entry. Tags and fused reporters are not part of them. Lines headed by an entry give the natural chain unless they say otherwise; changes in a name come on top.
UniProt Q15059: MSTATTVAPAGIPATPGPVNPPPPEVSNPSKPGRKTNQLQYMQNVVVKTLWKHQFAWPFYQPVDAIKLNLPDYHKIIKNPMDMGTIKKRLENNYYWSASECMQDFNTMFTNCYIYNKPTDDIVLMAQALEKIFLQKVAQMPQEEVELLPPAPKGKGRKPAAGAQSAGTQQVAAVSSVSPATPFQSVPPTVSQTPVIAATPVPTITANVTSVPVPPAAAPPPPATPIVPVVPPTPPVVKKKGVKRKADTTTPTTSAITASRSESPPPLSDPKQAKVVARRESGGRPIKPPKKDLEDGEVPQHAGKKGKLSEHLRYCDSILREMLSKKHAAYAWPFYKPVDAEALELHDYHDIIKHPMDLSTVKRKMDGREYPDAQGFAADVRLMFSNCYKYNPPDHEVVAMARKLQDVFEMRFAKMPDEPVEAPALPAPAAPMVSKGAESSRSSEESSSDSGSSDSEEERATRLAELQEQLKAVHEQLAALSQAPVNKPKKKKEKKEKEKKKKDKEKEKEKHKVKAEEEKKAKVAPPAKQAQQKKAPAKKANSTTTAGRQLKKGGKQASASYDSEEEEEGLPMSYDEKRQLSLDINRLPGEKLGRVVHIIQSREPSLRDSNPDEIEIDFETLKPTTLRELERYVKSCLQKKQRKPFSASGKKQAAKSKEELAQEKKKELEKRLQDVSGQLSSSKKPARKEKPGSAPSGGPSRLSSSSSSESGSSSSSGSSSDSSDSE

In one test the target is T1, BIN1 (UniProt O00499).
T1 sequence: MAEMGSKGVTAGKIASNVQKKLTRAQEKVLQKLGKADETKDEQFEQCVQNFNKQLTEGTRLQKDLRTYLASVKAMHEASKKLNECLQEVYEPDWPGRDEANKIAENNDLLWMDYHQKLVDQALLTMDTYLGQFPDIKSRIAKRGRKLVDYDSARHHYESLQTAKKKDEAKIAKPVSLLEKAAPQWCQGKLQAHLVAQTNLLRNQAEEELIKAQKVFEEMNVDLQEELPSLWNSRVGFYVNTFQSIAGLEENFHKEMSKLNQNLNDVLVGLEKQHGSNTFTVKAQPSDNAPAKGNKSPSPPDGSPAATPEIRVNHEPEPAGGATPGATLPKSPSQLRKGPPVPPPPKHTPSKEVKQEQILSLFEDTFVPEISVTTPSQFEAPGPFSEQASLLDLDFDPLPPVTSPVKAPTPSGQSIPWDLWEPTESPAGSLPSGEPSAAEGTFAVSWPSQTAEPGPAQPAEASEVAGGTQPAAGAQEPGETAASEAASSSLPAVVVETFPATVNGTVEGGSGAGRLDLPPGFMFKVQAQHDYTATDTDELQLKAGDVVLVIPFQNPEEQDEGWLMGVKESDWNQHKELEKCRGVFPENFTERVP

The next test concerns BIRC5 (human).
For a further test, the system named is BIRC7 (human).
In a further test the test system is BMF (human).
Another test has as its target BRD3 (UniProt Q15059).
In the next test the test system is BRD9 (human).
A further test addresses T2, BSG (UniProt P35613).
T2 sequence: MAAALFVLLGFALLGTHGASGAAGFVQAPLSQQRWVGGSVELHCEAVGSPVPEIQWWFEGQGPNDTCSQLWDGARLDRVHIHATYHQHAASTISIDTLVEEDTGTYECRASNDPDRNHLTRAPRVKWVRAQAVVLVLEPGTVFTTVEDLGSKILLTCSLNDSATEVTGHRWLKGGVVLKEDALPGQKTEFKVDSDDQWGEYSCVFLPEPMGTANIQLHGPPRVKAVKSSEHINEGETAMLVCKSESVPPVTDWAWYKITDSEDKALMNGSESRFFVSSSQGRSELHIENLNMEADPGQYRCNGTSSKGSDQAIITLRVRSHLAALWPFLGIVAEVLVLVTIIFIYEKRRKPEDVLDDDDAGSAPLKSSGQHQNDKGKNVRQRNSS

A further test concerns BTG2 (human).
In test [1] the test system is Baculoviral IAP repeat-containing protein 7 (human).
In test [2] the test system is Band 4.1-like protein 4A (human).
Test [3] has as its system Bardet-Biedl syndrome 10 protein (human).
For test [4], the system named is Beta-2-microglobulin (human).
Test [5] has as its system Bifunctional protein NCOAT (human).
The subject of test [6] is Biogenesis of lysosome-related organelles complex 1 subunit 1 (human).
Test [7] deals with Branched-chain-amino-acid aminotransferase, mitochondrial (human).
The test system of test [8] is Breast carcinoma-amplified sequence 4 (human).
In test [9] the test system is Butyrophilin subfamily 2 member A2 (human).
The subject of test [10] is C-C motif chemokine 20 (human).
Test [11] deals with C-C motif chemokine 4 (human).
The test system of test [12] is C-Maf-inducing protein (human).

“And” between values parts separate entries of the source, which are not always exact repeats. Equal entries are not always repeated. The list shows a part of the results. For some assays here: The exact form of the protein is not confirmed.

Regarding “GGTGACAGGGGTATGGGGAGGGG [G4-2 biotinylated (Ct1)]”, the binding signal in the test with BIN1 is -0.393 z-score and -0.376 z-score; in the test on BIRC5 (human), -0.398 z-score; with BIRC7 (human) it was -0.368 z-score; in the test with BMF (human), -0.392 z-score and -0.395 z-score; with BRD3, 6.79 z-score; in the test with BRD9 (human), -0.393 z-score. Besides, the binding signal in the test with BSG is -0.377 z-score; in the test with BTG2 (human), -0.376 z-score; in test [1], -0.398 z-score; in [2] it was 4.23 z-score; in test [3], -0.358 z-score; in test [4], -0.383 z-score. Also, the binding signal in [5] was -0.395 z-score; in test [6] it was -0.367 z-score; in test [7], -0.399 z-score; in test [8], -0.392 z-score; in test [9], -0.391 z-score; in test [10] it was -0.377 z-score. Moreover, the binding signal was -0.387 z-score in test [11] and -0.392 z-score in test [12].

The values are drawn from publication PMC5996148.
